# Some of the results follow.
# Target: T1, OsSMF1 (Oryza sativa, UniProt Q6ZLB0 1-436)
# T1 sequence: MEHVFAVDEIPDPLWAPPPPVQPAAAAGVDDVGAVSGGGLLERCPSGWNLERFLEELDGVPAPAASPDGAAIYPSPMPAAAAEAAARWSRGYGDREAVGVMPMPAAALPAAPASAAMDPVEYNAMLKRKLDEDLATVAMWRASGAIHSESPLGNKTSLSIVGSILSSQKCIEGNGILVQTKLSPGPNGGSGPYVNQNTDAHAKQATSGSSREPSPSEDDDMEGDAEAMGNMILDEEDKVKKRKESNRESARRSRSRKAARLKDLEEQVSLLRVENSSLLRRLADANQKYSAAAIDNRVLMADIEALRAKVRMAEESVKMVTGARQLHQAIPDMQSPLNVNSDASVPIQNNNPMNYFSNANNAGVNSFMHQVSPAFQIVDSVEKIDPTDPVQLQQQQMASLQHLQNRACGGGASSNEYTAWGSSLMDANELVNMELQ
# Assay: protein-binding microarray (RPBM); PBS, 2% BSA, 51.3 ng/ul salmon testes DNA, 50 uM zinc acetate, 200 nM TF, 25 C, 1 h; high values mean tight binding
# Conditions: protein: recombinant; tags: N-terminal polyhistidine and DsRed monomer fusion (pET32a); chain copies: 2; label: CyDye5-dUTP incorporated in the synthesized complementary strand; 3' TTTTT single-stranded linker to array surface; dsDNA, one strand shown
# Summary of the method: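 The binding signal is fluorescence intensity per array feature (arbitrary units). Readings came from an Axon 4000B scanner after a washed, 2% BSA-blocked, double-stranded custom Agilent array had been incubated for 1 h at 25 °C with 200 nM protein and 50 µM zinc acetate. The protein was a Ni–NTA-purified transcription factor fused N-terminally to polyhistidine and DsRed, expressed in E. coli BL21-CodonPlus.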
row,Sequence,binding signal
1,CGGCATGATGGCCTTCTCCATCACCTCCGCTGCGTCGGCGCGGAGTCACCTAGTGCAG,3150 fluorescence intensity (a.u.)
2,AACATGATTTAACAGGTAACAGTCGCCCATGCCATTCTTGCGGAGTCACCTAGTGCAG,3350 fluorescence intensity (a.u.)
3,GTTGTCCATGCCCCTGTTCTTATGAGTCACAGCGATTCAGCGGAGTCACCTAGTGCAG,7380 fluorescence intensity (a.u.)
4,GCTGCCGCTGACTTCCGTCCCCTCCACGCTTGTCTCACTGCGGAGTCACCTAGTGCAG,3230 fluorescence intensity (a.u.)
5,GGTTCGAGCAGATTTGGTCCAGCCCAATTTCAGGGCACAACGGAGTCACCTAGTGCAG,3620 fluorescence intensity (a.u.)
6,ACCATGTGCCACCTCCCACTTGGTATGCTCCATGCTCGTCCGGAGTCACCTAGTGCAG,3230 fluorescence intensity (a.u.)
7,TTTCGTGTGCTACCTCAACGCGTCATAGTGTACAACACAACGGAGTCACCTAGTGCAG,4390 fluorescence intensity (a.u.)
8,GTCCCATCTCGACCGTCCACGTGTGGCCCATCCGTGAGCTCGGAGTCACCTAGTGCAG,4990 fluorescence intensity (a.u.)
9,TGCATGTTGCATGGCAGTCACATTCCACATCACATGCTTCCGGAGTCACCTAGTGCAG,7720 fluorescence intensity (a.u.)
10,CCCCAACTGAAGAACAATACGATATACTGTGATTTGAACCCGGAGTCACCTAGTGCAG,3720 fluorescence intensity (a.u.)
11,ACTACTACGAAACAGTCATCTGTACAAGGAGCTATGTCAGCGGAGTCACCTAGTGCAG,6160 fluorescence intensity (a.u.)
12,TGAAAATCGCGAGACAAATCTTTTGAGCCTAATTAGTCCCCGGAGTCACCTAGTGCAG,29000 fluorescence intensity (a.u.)
13,AAAGGATAGTTTCGCTAACGTGATGTCTATGTGACGTGTTCGGAGTCACCTAGTGCAG,14200 fluorescence intensity (a.u.)
14,TTGTCAAGCGCGCGACCGTGACACGGCTGCCTGGGCGGTCCGGAGTCACCTAGTGCAG,3180 fluorescence intensity (a.u.)
15,TGGCTATCAATTCTAGCTAGAATGACATCAGCTGCATGCTCGGAGTCACCTAGTGCAG,7710 fluorescence intensity (a.u.)
16,GACCTGTGACAGTGTTACTGCCACTGCTGCACTGCACACACGGAGTCACCTAGTGCAG,4150 fluorescence intensity (a.u.)
17,TATTATATTCACTTTGGTGTATGGCCAAGAACTACAGACTCGGAGTCACCTAGTGCAG,27600 fluorescence intensity (a.u.)
18,ATGTGACTACCACCTCTAAATTTATCTATTTTATTCACTCCGGAGTCACCTAGTGCAG,18600 fluorescence intensity (a.u.)
19,CAGTGCTAGGGAAGCGACCAATGATGGATAGTGGGAGGCACGGAGTCACCTAGTGCAG,45600 fluorescence intensity (a.u.)
20,TATCGATTCCAGCCAATGATGACACTATGACTTCAATTCGCGGAGTCACCTAGTGCAG,3490 fluorescence intensity (a.u.)
21,CGATAGCGGGAACAGTTGATTATGGTGCGGTACAAATTTCCGGAGTCACCTAGTGCAG,3380 fluorescence intensity (a.u.)

# Reprinted at random: 2 entries already listed.
row,Sequence,binding signal
3,GTTGTCCATGCCCCTGTTCTTATGAGTCACAGCGATTCAGCGGAGTCACCTAGTGCAG,7380 fluorescence intensity (a.u.)
15,TGGCTATCAATTCTAGCTAGAATGACATCAGCTGCATGCTCGGAGTCACCTAGTGCAG,7710 fluorescence intensity (a.u.)

# (cont.)

row,Sequence,binding signal
1,CCACCTGTCGCACTGTACATCGCCACATGTGTATGCCAGCCGGAGTCACCTAGTGCAG,6070 fluorescence intensity (a.u.)
2,CCACTTGGCCATTTCCCATCTGCCTCCTGGAGCTTTAGCTCGGAGTCACCTAGTGCAG,3260 fluorescence intensity (a.u.)
3,GTTAGACCGGTTGCTAGTCCCGGTAAGACCGCAGATATAACGGAGTCACCTAGTGCAG,30600 fluorescence intensity (a.u.)
4,TCCGGCTCTTCATCCTACGTGGAATGAGATAGGGGAACGCCGGAGTCACCTAGTGCAG,4680 fluorescence intensity (a.u.)
5,TCAATACCAATGGGCTGGGCTACAGGTGAGCTGGCCATCCCGGAGTCACCTAGTGCAG,3360 fluorescence intensity (a.u.)
6,GAGAAGAGGGGAAAGAGAGGGGTGACGTGGACACCCTGACCGGAGTCACCTAGTGCAG,21800 fluorescence intensity (a.u.)
7,TCTCCTCATCATCCGAGTCGTCATCATCATCGTCGTCGTCCGGAGTCACCTAGTGCAG,7460 fluorescence intensity (a.u.)
8,GTTTTGTTCCCTCGCATTGCGTCGAGTCATTGGGATTGATCGGAGTCACCTAGTGCAG,4750 fluorescence intensity (a.u.)
9,GAGATGTGGAGGGCCCACGTGTCAGGGACACCCAACGGGACGGAGTCACCTAGTGCAG,4180 fluorescence intensity (a.u.)
10,TCTCCTCTTCTCGCTTCGCCTTCTCCTCTCCTTGTCCTTGCGGAGTCACCTAGTGCAG,3310 fluorescence intensity (a.u.)
11,CGGCGGCGGCGTCATCGTCCTCGCCGCCCCTTATCCGGTCCGGAGTCACCTAGTGCAG,3320 fluorescence intensity (a.u.)
12,AGCTTTCCAAAAGACCACACGATGTGTCACCAAACGTCAGCGGAGTCACCTAGTGCAG,7570 fluorescence intensity (a.u.)
13,TATGTCCTACGTCAGGATCATAAAACCTCTGAAGCAATGACGGAGTCACCTAGTGCAG,5390 fluorescence intensity (a.u.)
14,AAGCGCGCGCCTCGCCACCTCACCCGAAGAAATTCCCCACCGGAGTCACCTAGTGCAG,4140 fluorescence intensity (a.u.)
15,TGAAAGGGGTTGATGTGTGGTGAAGGGTAGGTAATTTGTACGGAGTCACCTAGTGCAG,3860 fluorescence intensity (a.u.)
16,AGGCATTATTGCTGCCGCTTGCCGTTGCCGCAGTACTCAGCGGAGTCACCTAGTGCAG,19300 fluorescence intensity (a.u.)
17,CGGCTCCGCCGCACTTGCTCGGCCGTCCACGCCGGCACGGCGGAGTCACCTAGTGCAG,3640 fluorescence intensity (a.u.)
18,ATATCATATCGAAAGAAAGATGTTGTCCACCGCAGCTCCCCGGAGTCACCTAGTGCAG,3410 fluorescence intensity (a.u.)
19,TGAACAAGGTTGATGTCAAACTTTTATAACTTTAATCATTCGGAGTCACCTAGTGCAG,7100 fluorescence intensity (a.u.)
20,GGATCTAAATCCGCCACGTGTCAACCTAAGCGATAGGAAACGGAGTCACCTAGTGCAG,14800 fluorescence intensity (a.u.)
21,GTCAAGGTGCATATGGAACAGTTTATAAGGTAAGTTGAGGCGGAGTCACCTAGTGCAG,3190 fluorescence intensity (a.u.)

# Source: article PMC7819943, “Rice protein-binding microarrays: a tool to detect cis-acting elements near promoter regions in rice”
